Source: the supplement of paper PMC12823440, “Inhibitors supercharge kinase turnover through native proteolytic circuits” (Nature, 2025)
The other results are listed elsewhere or left out. The calls rarely recur for the same compound in another form.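 Kinases were expressed as nanoluciferase fusions in K562 cells and luminescence was read every 4 h between 2 and 18 h as percent of control, DMSO set to 100% and a positive control to 0%. A time point counts as decreased when the signal drops significantly (2 sigma). The hit call is the authors' own, does not follow from the count of time points alone, and its rule is not shown.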

The chains behind the UniProt entries cited, without tags or fusion partners. Where a name states a change or a piece, a line headed by the entry shows the natural chain unless it says otherwise.
UniProt Q9UQM7, whole entry: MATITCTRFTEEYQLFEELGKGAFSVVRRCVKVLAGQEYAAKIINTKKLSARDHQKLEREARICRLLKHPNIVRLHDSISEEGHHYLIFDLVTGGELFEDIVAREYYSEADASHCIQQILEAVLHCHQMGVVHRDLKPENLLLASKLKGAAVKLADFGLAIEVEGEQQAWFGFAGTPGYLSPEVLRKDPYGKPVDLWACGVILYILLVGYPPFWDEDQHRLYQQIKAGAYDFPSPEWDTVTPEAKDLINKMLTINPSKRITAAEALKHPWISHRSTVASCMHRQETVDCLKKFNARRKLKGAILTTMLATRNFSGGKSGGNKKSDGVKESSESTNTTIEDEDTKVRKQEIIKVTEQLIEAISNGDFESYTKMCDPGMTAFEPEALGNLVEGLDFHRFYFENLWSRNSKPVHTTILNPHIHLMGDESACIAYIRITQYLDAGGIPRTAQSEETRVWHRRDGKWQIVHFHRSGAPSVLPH
UniProt Q13555: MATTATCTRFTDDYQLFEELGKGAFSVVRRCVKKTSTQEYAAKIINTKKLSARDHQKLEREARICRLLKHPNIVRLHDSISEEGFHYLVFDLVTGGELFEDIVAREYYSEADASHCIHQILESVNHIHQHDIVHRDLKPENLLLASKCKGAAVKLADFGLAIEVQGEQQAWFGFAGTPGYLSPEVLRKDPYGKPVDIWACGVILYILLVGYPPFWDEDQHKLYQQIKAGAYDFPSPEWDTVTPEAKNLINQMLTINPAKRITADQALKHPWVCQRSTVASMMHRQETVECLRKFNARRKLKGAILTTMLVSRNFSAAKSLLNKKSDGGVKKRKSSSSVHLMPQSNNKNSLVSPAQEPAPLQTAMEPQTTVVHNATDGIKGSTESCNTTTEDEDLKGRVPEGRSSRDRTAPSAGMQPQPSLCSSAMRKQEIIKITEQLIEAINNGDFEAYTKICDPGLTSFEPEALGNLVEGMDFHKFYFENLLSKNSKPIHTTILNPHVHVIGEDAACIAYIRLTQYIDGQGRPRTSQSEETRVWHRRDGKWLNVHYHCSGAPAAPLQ
UniProt Q15131: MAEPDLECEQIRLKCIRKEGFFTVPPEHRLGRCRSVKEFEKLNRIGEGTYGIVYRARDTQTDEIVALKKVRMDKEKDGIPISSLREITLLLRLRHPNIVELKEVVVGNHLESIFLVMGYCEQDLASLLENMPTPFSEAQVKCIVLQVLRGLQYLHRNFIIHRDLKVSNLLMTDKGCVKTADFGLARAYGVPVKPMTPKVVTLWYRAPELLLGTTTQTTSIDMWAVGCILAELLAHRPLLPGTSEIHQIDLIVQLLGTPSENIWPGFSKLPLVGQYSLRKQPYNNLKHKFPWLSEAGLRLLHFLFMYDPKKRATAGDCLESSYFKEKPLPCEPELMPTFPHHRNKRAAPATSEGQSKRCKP
UniProt Q00526: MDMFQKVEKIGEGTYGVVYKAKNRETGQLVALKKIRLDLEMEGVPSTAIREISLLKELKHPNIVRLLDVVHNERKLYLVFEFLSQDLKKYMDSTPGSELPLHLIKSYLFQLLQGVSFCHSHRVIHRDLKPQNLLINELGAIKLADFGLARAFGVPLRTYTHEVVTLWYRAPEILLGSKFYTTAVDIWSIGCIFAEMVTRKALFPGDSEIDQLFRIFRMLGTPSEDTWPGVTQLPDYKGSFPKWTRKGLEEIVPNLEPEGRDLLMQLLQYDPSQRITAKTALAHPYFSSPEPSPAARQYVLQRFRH
UniProt Q00535, whole entry, looked up: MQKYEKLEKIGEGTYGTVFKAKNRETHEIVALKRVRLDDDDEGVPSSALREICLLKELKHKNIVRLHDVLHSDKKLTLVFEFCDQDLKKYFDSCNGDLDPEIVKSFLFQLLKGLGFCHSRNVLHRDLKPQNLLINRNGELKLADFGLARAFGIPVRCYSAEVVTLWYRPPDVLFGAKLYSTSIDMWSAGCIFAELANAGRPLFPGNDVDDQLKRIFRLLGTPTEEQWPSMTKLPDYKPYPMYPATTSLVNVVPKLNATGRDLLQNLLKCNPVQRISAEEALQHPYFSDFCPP
UniProt Q00534, whole entry: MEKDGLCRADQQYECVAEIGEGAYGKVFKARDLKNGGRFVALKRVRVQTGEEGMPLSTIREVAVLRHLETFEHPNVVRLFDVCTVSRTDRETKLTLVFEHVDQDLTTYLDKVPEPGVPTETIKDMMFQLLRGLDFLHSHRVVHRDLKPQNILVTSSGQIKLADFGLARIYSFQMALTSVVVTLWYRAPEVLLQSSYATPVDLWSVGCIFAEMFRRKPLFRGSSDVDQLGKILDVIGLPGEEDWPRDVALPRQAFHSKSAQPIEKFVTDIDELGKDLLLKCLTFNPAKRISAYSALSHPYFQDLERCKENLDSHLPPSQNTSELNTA
UniProt O96017, whole entry: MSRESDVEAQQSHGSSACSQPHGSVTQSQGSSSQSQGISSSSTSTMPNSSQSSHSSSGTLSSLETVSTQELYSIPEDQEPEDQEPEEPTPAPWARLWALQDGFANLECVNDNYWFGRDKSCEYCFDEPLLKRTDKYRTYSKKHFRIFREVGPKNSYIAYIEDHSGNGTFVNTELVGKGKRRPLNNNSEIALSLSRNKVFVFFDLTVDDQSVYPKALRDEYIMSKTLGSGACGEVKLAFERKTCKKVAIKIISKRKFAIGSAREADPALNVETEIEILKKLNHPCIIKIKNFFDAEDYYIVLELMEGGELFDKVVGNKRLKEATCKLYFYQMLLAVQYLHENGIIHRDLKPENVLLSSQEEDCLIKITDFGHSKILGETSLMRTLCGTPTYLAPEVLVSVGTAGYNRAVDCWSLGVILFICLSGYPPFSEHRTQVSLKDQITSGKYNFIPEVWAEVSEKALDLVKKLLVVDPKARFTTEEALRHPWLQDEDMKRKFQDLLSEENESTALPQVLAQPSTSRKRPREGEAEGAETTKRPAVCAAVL
UniProt P07333, whole entry: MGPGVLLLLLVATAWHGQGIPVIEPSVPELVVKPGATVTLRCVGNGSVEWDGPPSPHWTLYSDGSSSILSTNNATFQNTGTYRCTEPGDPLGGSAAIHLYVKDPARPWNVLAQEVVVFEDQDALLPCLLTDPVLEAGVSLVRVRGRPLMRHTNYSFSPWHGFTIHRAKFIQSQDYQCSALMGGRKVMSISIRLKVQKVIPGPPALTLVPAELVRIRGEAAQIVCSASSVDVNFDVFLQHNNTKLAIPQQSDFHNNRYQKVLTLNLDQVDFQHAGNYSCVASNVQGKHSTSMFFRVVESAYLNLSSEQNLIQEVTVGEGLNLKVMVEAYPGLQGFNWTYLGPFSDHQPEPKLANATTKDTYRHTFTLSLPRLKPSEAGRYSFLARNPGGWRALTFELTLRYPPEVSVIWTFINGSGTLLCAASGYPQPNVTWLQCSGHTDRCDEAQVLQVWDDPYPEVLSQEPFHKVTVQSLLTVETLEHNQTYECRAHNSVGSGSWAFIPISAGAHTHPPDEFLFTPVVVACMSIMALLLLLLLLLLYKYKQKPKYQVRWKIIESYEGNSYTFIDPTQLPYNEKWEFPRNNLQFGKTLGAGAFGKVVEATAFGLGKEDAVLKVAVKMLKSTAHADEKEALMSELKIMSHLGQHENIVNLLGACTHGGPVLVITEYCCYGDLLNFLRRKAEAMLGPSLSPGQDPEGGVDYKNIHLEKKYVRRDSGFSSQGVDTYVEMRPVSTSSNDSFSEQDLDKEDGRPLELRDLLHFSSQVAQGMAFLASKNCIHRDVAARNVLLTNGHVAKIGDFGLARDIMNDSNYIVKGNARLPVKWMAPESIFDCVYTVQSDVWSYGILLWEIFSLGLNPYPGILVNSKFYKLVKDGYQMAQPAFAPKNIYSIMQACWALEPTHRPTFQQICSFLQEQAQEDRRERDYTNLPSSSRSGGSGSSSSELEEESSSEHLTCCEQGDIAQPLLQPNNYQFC
UniProt P41240: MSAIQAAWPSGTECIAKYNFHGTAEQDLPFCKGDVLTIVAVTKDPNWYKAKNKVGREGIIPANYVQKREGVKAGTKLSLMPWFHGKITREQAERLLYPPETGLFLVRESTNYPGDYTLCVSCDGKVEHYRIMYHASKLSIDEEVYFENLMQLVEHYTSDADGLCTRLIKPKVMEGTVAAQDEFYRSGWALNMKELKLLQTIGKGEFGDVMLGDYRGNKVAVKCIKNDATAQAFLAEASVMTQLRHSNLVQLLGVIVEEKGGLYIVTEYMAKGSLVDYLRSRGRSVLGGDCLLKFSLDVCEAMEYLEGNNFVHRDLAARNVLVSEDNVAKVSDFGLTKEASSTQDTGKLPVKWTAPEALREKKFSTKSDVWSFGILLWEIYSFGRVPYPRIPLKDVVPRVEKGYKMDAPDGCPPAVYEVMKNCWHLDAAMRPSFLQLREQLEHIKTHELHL
UniProt P48729: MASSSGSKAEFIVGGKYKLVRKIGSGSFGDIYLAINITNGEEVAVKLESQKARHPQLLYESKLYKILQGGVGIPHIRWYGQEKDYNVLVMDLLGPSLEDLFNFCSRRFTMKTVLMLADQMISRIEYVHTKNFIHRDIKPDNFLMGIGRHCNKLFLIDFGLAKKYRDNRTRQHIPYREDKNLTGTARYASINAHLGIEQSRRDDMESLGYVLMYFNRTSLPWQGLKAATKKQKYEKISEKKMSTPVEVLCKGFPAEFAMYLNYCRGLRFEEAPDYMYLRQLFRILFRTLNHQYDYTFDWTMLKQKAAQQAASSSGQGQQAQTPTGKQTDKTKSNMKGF
UniProt P48730: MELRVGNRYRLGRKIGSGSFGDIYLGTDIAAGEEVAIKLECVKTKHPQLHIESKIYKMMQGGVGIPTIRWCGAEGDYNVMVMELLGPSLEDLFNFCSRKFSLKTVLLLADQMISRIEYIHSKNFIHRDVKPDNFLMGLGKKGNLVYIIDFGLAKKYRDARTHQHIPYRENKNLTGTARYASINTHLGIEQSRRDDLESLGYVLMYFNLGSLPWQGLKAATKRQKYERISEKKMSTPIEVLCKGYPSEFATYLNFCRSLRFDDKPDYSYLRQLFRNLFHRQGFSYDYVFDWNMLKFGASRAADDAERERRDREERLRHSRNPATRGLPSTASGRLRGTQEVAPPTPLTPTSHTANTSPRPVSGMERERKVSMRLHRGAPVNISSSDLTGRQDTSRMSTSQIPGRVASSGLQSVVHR
UniProt Q9Y463, whole entry, looked up: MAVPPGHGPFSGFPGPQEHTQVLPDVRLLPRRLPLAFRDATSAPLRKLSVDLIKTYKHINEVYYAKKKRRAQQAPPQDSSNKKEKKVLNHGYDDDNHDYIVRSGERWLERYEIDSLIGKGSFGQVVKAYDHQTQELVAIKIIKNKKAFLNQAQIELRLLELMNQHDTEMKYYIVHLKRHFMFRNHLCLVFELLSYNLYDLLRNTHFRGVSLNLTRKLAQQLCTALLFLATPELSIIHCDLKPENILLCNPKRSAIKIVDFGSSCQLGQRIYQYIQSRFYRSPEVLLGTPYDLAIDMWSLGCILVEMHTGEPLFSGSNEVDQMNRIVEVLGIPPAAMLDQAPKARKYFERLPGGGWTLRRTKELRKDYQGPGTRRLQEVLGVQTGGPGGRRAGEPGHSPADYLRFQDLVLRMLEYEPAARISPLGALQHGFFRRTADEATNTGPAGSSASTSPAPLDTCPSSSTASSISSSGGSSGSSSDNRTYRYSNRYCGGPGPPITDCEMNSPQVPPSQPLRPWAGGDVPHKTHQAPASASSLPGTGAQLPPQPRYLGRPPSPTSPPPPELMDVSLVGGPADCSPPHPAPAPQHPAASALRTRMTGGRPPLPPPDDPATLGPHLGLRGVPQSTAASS
UniProt Q92630: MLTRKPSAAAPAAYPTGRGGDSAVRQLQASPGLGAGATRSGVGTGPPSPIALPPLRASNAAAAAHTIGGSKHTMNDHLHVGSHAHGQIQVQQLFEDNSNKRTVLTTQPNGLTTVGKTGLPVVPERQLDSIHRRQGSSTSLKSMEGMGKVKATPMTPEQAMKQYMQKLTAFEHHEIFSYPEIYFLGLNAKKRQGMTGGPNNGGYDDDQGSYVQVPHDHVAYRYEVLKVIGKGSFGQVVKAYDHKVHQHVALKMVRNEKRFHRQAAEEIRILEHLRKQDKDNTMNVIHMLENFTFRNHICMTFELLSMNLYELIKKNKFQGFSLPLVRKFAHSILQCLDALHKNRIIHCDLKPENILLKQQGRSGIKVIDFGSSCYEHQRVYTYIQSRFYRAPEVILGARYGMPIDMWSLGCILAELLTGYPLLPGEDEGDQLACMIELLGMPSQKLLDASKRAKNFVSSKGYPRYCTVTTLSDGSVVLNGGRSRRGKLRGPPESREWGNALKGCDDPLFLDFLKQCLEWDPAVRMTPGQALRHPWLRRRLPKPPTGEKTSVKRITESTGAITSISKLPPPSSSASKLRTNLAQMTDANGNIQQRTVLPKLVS

Assays:
Assay in all cases: number of time points (of 5) at which kinase-Nluc abundance scored as decreased, DMSO-normalised (count); higher = more persistent destabilization
Conditions in all cases: K562; 2-18 h
CAMK2A = CAMK2A (UniProt Q9UQM7)
CAMK2G = CAMK2G (UniProt Q13555)
CDK10 = CDK10 (UniProt Q15131)
CDK2 = CDK2 (UniProt P24941)
CDK3 = CDK3 (UniProt Q00526)
CDK5 = CDK5 (UniProt Q00535)
CDK6 = CDK6 (UniProt Q00534)
CHEK2 = CHEK2 (UniProt O96017)
CSF1R = CSF1R (UniProt P07333)
CSK = CSK (UniProt P41240)
CSNK1A1 = CSNK1A1 (UniProt P48729)
CSNK1D = CSNK1D (UniProt P48730)
DDR1 = DDR1 (UniProt Q08345)
DYRK1B = DYRK1B (UniProt Q9Y463)
DYRK2 = DYRK2 (UniProt Q92630)
EGFR = EGFR (UniProt P00533)
EGFR_G719S = EGFR_G719S (UniProt P00533)
EGFR_G719S_T790M = EGFR_G719S_T790M (UniProt P00533)
EGFR_L718V = EGFR_L718V (UniProt P00533)
EGFR_L858R = EGFR_L858R (UniProt P00533)

Measured: number of time points

O=C(O)CCc1ccc(NCc2cccc(Oc3ccccc3)c2)cc1 (10 µM)
0: all assays above

CC1=C(C(=O)Nc2ccc3[nH]ncc3c2)C(c2ccc(F)cc2)NC(=O)N1 (stereo not given) (10 µM)
2: CDK2
0: all other assays above

NS(=O)(=O)c1ccc(N2N=C(c3ccccc3)CC2c2ccccc2)cc1 (stereo not given) (10 µM)
0: all assays above

O=C(CCCCCn1cc(Nc2ncc(Cl)c(Nc3ccc(Cl)cc3)n2)cn1)NO (2.5 µM)
1: CAMK2A | CSNK1D | EGFR | EGFR_G719S_T790M | EGFR_L718V
0: all other assays above

CCc1ccc(C(=O)COc2ccc(CC3SC(=O)NC3=O)cc2)nc1 (stereo not given) (10 µM)
0: all assays above

O=C(O)c1ccccc1Nc1cccc(C(F)(F)F)c1 [Flufenamic acid] (10 µM)
0: all assays above

CC(C)(O)[C@@H]1CC[C@](C)([C@H]2[C@@H](O)C[C@@]3(C)[C@@H]4C[C@H](O[C@@H]5O[C@H](CO)[C@@H](O)[C@H](O)[C@H]5O)[C@H]5C(C)(C)[C@@H](O[C@@H]6OC[C@@H](O)[C@H](O)[C@H]6O[C@@H]6O[C@H](CO)[C@@H](O)[C@H](O)[C@H]6O)CC[C@@]56C[C@@]46CC[C@]23C)O1 [Astragaloside VI] (10 µM)
0: all assays above

CN(C)Cc1cccc(N=C(c2ccccc2)c2c(O)[nH]c3cc(C(=O)N(C)C)ccc23)c1 (10 µM)
0: all assays above

O=C1NC(=O)C(c2cnc3ccccn23)=C1c1cn2c3c(cc(F)cc13)CN(C(=O)N1CCCCC1)CC2 (2.5 µM)
0: all assays above

C[C@@H]1COCCN1c1cc(C2([S@](C)(=N)=O)CC2)nc(-c2cc[nH]c3nccc2-3)n1 [Ceralasertib] (2.5 µM)
0: all assays above

Cn1cc(-c2ccc3nnc(C(F)(F)c4ccc5ncccc5c4)n3n2)cn1 (10 µM)
0: all assays above

O=C1NC(=O)C(=Cc2ccc3c(c2)OCO3)S1 (10 µM)
0: all assays above

C[C@H]1[C@H](OC(=O)CCC(=O)O)O[C@@H]2O[C@@]3(C)CC[C@H]4[C@H](C)CC[C@@H]1[C@@]24OO3 [Artesunate] (2.5 µM)
2: DYRK2
1: CDK10 | CHEK2 | CSF1R | DDR1
0: all other assays above

COc1c(C)c(C(=O)c2ccc(N)c(C(=O)O)c2)n2ccccc12 (10 µM)
0: all assays above

C=CC(=O)Nc1cccc(Oc2nc(Nc3ccc(N4CCN(C)CC4)cc3)nc3ccoc23)c1 [Poseltinib] (10 µM)
0: all assays above

c1ccc(-c2oc3ncnc(NC[C@@H]4CCCO4)c3c2-c2ccccc2)cc1 (2.5 µM)
0: all assays above

COc1cc(C(=O)N2CCC(N3CCN(C)CC3)CC2)ccc1Nc1ncc2c(n1)N(C)c1ccccc1C(=O)N2C (10 µM)
0: all assays above

C[C@@H]1COCCN1c1cc(=O)n2c(n1)N(Cc1cncc(Cl)c1)[C@H](C(F)(F)F)CC2 (10 µM)
3: DYRK2
1: CHEK2
0: all other assays above

[O-][n+]1cccc(-c2nc3c(Cl)cccc3cc2[C@@H](Nc2ncnc3cccnc23)C(F)(F)F)c1 [Seletalisib] (10 µM)
0: all assays above

CC1=C(CC(=O)O)c2cc(F)ccc2/C1=C\c1ccc(C(C)C)cc1 (10 µM)
5: DYRK1B
4: CDK3
0: all other assays above

C=C[C@H]1[C@H](O[C@@H]2O[C@H](CO)[C@@H](O)[C@H](O)[C@H]2OC(=O)c2c(O)cc(O)cc2-c2cccc(O)c2)OC=C2C(=O)OCC[C@H]21 [Amarogentin] (10 µM)
0: all assays above

CNC(=O)c1ccc(-c2cnc3cnc(-c4ccccc4)cn23)cc1 (10 µM)
0: all assays above

Cc1cc2ncc(-c3ccccc3)nc2cc1C (10 µM)
0: all assays above

CN(C)c1nc2c(Br)c(Br)c(Br)c(Br)c2n1CC(=O)O (10 µM)
1: CDK2
0: all other assays above

Fetched by structure from the entries so far (2):
O=C(O)c1ccccc1Nc1cccc(C(F)(F)F)c1 [Flufenamic acid] (10 µM)
0: all assays above

CC(C)(O)[C@@H]1CC[C@](C)([C@H]2[C@@H](O)C[C@@]3(C)[C@@H]4C[C@H](O[C@@H]5O[C@H](CO)[C@@H](O)[C@H](O)[C@H]5O)[C@H]5C(C)(C)[C@@H](O[C@@H]6OC[C@@H](O)[C@H](O)[C@H]6O[C@@H]6O[C@H](CO)[C@@H](O)[C@H](O)[C@H]6O)CC[C@@]56C[C@@]46CC[C@]23C)O1 [Astragaloside VI] (10 µM)
0: all assays above
